Results are given in words; binding and its absence hold for the method and conditions named. In cells and extracts the contact can be indirect. Where a sequence is shown, tags or fusion partners need not be part of it.

Sequences of proteins named here, by UniProt entry; tags and fusion partners are left off.
UniProt P04406: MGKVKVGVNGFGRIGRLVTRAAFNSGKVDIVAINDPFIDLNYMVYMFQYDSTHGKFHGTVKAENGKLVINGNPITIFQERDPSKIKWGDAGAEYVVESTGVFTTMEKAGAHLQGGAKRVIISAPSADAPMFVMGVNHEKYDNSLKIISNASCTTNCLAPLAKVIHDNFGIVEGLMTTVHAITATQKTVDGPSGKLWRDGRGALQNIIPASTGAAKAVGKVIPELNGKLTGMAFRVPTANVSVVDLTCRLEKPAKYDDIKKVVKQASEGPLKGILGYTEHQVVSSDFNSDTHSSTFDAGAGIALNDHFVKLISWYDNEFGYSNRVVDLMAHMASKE

This assay addresses T1, FLAG-UBR7 (wild-type human UBR7 with FLAG tag) (human) (UniProt Q8N806).
T1 sequence: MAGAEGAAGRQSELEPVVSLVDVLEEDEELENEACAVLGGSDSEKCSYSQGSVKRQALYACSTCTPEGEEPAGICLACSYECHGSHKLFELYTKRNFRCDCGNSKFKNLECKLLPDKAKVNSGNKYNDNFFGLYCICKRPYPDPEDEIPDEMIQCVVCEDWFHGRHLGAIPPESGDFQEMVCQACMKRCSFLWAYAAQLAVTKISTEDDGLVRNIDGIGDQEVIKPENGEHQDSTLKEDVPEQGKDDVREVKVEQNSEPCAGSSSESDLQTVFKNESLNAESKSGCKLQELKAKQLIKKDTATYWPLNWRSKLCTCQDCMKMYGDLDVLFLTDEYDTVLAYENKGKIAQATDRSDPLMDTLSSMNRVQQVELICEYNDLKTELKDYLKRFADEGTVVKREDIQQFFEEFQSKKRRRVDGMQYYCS
The experiment in a line: co-IP.

GAPDH (from UniProt P04406 1-335): the binding entry is given as “no binding”.
